According to paper PMC9843051:

Target: Flag-tagged N-terminal domain of ODF2L (human)
Assay: co-IP; immunoprecipitation against Flag from EOC cells cotransfected with Myc-PKMYT1, CDK1-V5 or Flag-tagged truncated ODF2L domains, followed by immunoblotting

- binding: binds
B1: Myc-PKMYT1 (enzyme, UniProt Q99640 1-499)
chain: MLERPPALAMPMPTEGTPPPLSGTPIPVPAYFRHAEPGFSLKRPRGLSRSLPPPPPAKGSIPISRLFPPRTPGWHQLQPRRVSFRGEASETLQSPGYDPSRPESFFQQSFQRLSRLGHGSYGEVFKVRSKEDGRLYAVKRSMSPFRGPKDRARKLAEVGSHEKVGQHPCCVRLEQAWEEGGILYLQTELCGPSLQQHCEAWGASLPEAQVWGYLRDTLLALAHLHSQGLVHLDVKPANIFLGPRGRCKLGDFGLLVELGTAGAGEVQEGDPRYMAPELLQGSYGTAADVFSLGLTILEVACNMELPHGGEGWQQLRQGYLPPEFTAGLSSELRSVLVMMLEPDPKLRATAEALLALPVLRQPRAWGVLWCMAAEALSRGWALWQALLALLCWLWHGLAHPASWLQPLGPPATPPGSPPCSLLLDSSLSSNWDDDSLGPSLSPEAVLARTVGSTSTPRSRCTPRDALDLSDINSEPPRGSFPSFEPRNLLSLFEDTLDPT

These are yes or no findings as the source states them, for the method shown. In cells and extracts the contact can be indirect. Binding calls can cover weak binding; strength is not graded here. Sequences can lack the tags named with a protein.
